Measured values from PubChem BioAssay AID220 (DTP/NCI, 2004).
The list is a part of this screen's results and no random one: its compounds were picked by chemical class. Not every dose and run of a compound is shown. T/C gives the treated animals as a percentage of the vehicle group. Schedule codes are those of the source, taken here to give the interval after Q, in days (D) or hours (H), and the number of doses after X. Some T/C values are marked as having no survivor count here; that says nothing about deaths at the dose. Some entries hold several experiments; the values are given in rising order.

Test system: CD8F1 mice, subcutaneous mammary adenocarcinoma, T/C%
Experiment: NCI In Vivo Anticancer Drug Screen. Data for tumor model Mammary Adenocarcinoma CD8F1 (subcutaneous) in CD8F1
Details: vehicle: saline, higher T/C = larger tumour
Procedure: The antitumor activity of compounds was measured in mice bearing transplantable tumors. Survival or tumor size were measured and the results are expressed as the measurement made in the treated group (T) divided by the measurement made in the vehicle treated control group (C). The tumor model used in this assay is Mammary Adenocarcinoma CD8F1 (subcutaneous) in CD8F1

`CN(CCCl)CCCl` was tested, and the T/C (T/C endpoint: mean tumor weight (est.), dose: 0.25 mg/kg/injection, schedule: Q07DX002 (ip), evaluation day not shown) was 79 % of control [survivor count not shown], the T/C (T/C endpoint: mean tumor weight (est.), dose: 0.5 mg/kg/injection, schedule: Q07DX002 (ip), evaluation day not shown) was 78 % of control [survivor count not shown] and the T/C (T/C endpoint: mean tumor weight (est.), dose: 1.0 mg/kg/injection, schedule: Q07DX002 (ip), evaluation day not shown) was 67 % of control [survivor count not shown]. The T/C (T/C endpoint: mean tumor weight, dose: 0.13 mg/kg/injection, schedule: Q01DX009 (ip), evaluation day not shown) was 98 % of control [survivor count not shown], the T/C (T/C endpoint: mean tumor weight, dose: 0.13 mg/kg/injection, schedule: Q07DX006 (ip), evaluation day not shown) was 90 % of control [survivor count not shown] and the T/C (T/C endpoint: mean tumor weight, dose: 0.25 mg/kg/injection, schedule: Q01DX009 (ip), evaluation day not shown) was 36 % of control [survivor count not shown]. The T/C (T/C endpoint: mean tumor weight, dose: 0.25 mg/kg/injection, schedule: Q07DX006 (ip), evaluation day not shown) was 417 % of control [survivor count not shown], the T/C (T/C endpoint: mean tumor weight, dose: 0.5 mg/kg/injection, schedule: Q01DX009 (ip), evaluation day not shown) was 7 % of control [survivor count not shown] and the T/C (T/C endpoint: mean tumor weight, dose: 0.5 mg/kg/injection, schedule: Q07DX006 (ip), evaluation day not shown) was 34 % of control [survivor count not shown]. The T/C (T/C endpoint: mean tumor weight, dose: 1.0 mg/kg/injection, schedule: Q07DX006 (ip), evaluation day not shown) was 19 % of control [survivor count not shown], the T/C (T/C endpoint: mean tumor weight, dose: 5.0 mg/kg/injection, schedule: Q07DX006 (ip), evaluation day not shown) was 85 % of control [survivor count not shown] and the T/C (T/C endpoint: median tumor weight (est.), dose: 0.06 mg/kg/injection, schedule: Q07DX005 (ip), evaluated on day 30) was 209 % of control. For the same molecule, the T/C (T/C endpoint: median tumor weight (est.), dose: 0.06 mg/kg/injection, schedule: Q07DX005 (ip), evaluation day not shown) was 49 [survivor count not shown] and 70 % of control [survivor count not shown], the T/C (T/C endpoint: median tumor weight (est.), dose: 0.12 mg/kg/injection, schedule: Q07DX005 (ip), evaluated on day 30) was 39 % of control and the T/C (T/C endpoint: median tumor weight (est.), dose: 0.12 mg/kg/injection, schedule: Q07DX005 (ip), evaluation day not shown) was 61 % of control [survivor count not shown]. For the same molecule, the T/C (T/C endpoint: median tumor weight (est.), dose: 0.13 mg/kg/injection, schedule: Q07DX005 (ip), evaluation day not shown) was 92 % of control [survivor count not shown], the T/C (T/C endpoint: median tumor weight (est.), dose: 0.25 mg/kg/injection, schedule: Q07DX005 (ip), evaluated on day 30) was 48 % of control and the T/C (T/C endpoint: median tumor weight (est.), dose: 0.25 mg/kg/injection, schedule: Q07DX005 (ip), evaluation day not shown) was 34 [survivor count not shown] and 49 % of control [survivor count not shown]. The T/C (T/C endpoint: median tumor weight (est.), dose: 0.5 mg/kg/injection, schedule: Q07DX005 (ip), evaluated on day 30) was 75 % of control, the T/C (T/C endpoint: median tumor weight (est.), dose: 0.5 mg/kg/injection, schedule: Q07DX005 (ip), evaluation day not shown) was 5 [survivor count not shown] and 17 % of control [survivor count not shown] and the T/C (T/C endpoint: median tumor weight (est.), dose: 1.0 mg/kg/injection, schedule: Q07DX005 (ip), evaluated on day 30) was 28 % of control.
